# Reference: the supplement of paper PMC10849652
# Amino acid sequences for entries named in this document (tags omitted). A change or cut given only in a name is not applied to a line headed by its entry.
# UniProt Q9Y450, whole entry, looked up: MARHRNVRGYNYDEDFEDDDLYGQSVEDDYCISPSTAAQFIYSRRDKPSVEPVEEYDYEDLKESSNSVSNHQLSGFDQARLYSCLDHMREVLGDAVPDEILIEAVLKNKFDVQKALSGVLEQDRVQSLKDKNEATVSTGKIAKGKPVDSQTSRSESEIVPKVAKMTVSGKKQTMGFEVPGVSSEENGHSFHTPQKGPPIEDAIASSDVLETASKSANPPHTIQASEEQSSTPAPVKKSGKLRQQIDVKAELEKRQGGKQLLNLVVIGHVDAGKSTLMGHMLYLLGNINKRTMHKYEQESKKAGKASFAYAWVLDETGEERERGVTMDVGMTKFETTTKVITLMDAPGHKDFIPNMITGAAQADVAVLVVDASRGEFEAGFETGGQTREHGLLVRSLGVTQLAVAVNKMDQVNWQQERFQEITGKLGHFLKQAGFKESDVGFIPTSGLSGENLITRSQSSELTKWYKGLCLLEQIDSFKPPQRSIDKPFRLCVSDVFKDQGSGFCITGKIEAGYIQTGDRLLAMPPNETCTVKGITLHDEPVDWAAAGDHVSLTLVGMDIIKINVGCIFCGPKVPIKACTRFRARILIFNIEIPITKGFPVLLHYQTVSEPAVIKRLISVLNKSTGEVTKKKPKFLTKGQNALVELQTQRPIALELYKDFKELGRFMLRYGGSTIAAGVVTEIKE
# UniProt Q9NYZ3: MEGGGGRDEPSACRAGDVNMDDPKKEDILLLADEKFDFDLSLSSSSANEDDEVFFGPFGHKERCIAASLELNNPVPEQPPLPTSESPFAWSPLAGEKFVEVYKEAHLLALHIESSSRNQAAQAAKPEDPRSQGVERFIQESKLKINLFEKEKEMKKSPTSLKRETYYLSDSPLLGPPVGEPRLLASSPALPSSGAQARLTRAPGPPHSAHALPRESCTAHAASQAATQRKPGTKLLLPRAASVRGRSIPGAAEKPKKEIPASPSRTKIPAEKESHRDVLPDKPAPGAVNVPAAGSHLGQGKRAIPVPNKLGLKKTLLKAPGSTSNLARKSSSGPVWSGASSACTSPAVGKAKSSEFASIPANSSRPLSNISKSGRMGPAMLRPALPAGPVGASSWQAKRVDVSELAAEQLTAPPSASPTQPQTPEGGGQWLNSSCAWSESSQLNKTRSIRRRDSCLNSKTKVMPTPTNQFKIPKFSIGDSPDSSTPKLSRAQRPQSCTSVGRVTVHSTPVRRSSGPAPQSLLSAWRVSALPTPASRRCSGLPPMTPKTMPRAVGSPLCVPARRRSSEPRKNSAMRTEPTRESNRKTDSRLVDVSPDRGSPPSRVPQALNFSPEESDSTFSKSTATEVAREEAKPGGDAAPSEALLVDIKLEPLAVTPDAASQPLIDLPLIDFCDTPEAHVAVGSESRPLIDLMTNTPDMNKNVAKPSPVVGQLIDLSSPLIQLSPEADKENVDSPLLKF
# UniProt P14317: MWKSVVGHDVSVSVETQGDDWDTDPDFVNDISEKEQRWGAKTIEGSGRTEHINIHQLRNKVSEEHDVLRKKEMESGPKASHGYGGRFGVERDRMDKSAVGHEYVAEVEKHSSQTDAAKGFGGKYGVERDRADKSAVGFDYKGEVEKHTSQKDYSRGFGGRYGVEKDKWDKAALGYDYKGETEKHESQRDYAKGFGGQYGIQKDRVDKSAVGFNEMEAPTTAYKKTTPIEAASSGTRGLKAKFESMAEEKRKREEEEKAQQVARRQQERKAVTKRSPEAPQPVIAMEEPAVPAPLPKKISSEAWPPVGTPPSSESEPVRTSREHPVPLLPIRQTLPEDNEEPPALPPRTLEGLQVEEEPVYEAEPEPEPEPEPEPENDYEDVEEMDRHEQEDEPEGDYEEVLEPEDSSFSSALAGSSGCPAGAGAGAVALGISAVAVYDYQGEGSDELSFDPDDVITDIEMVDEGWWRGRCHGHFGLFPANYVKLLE
# UniProt P25098: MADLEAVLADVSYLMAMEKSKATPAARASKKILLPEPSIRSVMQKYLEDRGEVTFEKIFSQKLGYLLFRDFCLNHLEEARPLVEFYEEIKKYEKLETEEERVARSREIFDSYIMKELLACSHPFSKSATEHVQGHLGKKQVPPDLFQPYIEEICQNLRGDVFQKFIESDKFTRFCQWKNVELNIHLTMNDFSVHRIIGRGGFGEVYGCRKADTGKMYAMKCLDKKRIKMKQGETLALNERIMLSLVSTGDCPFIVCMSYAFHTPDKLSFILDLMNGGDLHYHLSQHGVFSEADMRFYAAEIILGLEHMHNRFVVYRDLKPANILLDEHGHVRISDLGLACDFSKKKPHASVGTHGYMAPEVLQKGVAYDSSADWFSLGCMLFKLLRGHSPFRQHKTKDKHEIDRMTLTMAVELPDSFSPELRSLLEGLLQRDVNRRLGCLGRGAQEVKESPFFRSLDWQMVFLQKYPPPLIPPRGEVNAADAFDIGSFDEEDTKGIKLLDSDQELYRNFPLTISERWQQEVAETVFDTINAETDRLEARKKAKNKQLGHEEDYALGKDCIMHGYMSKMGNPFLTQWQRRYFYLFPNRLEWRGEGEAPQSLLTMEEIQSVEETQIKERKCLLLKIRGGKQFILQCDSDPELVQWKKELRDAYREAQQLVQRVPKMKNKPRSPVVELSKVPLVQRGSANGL
# UniProt P49590: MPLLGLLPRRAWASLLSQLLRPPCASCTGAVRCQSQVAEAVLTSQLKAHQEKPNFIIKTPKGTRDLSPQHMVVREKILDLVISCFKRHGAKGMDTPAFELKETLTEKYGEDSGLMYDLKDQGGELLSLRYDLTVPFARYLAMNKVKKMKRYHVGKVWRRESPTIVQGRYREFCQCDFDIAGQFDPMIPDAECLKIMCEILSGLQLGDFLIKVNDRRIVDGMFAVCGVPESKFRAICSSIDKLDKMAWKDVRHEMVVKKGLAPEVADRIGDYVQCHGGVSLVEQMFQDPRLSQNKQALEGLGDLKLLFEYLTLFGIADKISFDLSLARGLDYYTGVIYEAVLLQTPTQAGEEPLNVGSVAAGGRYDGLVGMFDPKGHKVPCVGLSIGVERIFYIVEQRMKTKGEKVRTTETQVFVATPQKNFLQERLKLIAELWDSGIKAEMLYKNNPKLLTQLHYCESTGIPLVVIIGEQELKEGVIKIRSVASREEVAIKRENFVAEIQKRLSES
# UniProt P09211: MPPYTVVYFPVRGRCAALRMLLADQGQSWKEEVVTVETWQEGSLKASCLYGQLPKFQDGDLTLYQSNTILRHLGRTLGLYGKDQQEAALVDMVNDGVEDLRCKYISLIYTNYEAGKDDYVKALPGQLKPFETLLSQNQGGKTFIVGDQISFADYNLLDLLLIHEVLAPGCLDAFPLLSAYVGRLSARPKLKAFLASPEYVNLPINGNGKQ
# UniProt Q9Y2Q3: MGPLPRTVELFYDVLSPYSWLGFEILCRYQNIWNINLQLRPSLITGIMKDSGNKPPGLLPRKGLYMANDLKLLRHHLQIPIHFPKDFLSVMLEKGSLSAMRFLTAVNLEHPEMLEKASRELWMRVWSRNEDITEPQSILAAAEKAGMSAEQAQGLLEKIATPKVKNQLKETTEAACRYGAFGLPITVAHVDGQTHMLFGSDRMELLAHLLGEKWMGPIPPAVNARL
# UniProt Q9H6D7: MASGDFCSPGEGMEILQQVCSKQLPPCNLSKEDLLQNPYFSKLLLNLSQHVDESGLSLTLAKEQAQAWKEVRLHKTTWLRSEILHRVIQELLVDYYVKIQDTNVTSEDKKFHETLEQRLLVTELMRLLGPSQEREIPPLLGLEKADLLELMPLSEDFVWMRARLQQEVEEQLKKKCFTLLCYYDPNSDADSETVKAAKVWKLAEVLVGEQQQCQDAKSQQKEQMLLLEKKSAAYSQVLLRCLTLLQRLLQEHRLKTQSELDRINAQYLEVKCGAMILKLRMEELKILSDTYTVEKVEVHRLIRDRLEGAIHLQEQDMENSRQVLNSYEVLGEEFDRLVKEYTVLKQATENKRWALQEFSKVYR
# UniProt P02100: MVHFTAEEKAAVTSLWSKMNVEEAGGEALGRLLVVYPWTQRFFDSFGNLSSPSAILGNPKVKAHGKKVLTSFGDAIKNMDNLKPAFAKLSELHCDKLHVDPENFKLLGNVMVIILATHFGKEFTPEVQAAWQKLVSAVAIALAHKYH
# UniProt Q68CZ6: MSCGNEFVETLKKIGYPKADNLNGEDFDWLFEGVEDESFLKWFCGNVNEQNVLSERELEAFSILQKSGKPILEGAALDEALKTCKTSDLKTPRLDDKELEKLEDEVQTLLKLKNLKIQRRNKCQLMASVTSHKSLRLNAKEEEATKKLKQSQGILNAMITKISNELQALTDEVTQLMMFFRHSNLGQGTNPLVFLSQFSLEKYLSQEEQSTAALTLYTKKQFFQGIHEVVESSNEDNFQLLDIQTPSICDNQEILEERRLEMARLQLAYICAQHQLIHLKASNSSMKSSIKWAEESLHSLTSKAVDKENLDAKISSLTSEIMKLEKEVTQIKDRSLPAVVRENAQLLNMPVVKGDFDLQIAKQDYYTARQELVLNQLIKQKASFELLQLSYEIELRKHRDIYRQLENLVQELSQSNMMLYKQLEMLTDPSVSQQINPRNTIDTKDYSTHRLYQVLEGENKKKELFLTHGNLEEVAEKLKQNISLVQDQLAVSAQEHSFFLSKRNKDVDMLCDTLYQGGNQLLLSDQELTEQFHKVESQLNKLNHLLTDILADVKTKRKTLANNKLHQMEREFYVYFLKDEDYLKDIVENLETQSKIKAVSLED
# UniProt Q4V328: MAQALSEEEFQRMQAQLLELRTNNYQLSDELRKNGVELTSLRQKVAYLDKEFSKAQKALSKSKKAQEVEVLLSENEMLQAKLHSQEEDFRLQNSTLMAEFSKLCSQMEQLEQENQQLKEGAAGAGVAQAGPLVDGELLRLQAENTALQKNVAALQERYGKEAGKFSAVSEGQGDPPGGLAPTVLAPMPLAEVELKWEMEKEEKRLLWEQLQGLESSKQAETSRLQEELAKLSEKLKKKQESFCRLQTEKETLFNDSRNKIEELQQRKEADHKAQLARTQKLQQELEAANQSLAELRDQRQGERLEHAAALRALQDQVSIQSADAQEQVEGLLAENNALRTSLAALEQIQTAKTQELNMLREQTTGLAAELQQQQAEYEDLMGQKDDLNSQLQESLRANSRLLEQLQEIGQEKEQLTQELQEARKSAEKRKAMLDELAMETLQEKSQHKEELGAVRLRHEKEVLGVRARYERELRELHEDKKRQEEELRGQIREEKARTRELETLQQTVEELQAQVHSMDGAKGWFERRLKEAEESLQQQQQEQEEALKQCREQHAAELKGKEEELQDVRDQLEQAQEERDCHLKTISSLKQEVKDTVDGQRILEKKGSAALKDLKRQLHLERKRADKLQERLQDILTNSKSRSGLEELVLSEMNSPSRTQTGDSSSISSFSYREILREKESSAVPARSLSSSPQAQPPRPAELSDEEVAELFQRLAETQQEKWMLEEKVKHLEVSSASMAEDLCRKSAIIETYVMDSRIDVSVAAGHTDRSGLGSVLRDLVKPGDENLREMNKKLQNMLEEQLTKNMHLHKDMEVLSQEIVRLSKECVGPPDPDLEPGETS
# UniProt P12081: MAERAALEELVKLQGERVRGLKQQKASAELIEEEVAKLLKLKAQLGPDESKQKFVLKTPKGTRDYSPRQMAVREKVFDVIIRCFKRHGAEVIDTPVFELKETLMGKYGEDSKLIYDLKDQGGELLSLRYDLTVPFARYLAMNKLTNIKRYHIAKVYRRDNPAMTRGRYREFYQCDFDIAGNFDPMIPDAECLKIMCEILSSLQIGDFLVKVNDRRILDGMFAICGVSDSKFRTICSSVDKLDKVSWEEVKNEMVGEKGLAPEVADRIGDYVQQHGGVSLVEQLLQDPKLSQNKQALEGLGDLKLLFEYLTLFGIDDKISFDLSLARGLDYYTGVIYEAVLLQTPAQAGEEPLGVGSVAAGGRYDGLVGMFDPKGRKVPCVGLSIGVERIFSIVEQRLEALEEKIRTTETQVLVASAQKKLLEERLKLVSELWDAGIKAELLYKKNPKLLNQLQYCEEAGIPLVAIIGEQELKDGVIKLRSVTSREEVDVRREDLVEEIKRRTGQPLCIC
# UniProt Q9Y3E1: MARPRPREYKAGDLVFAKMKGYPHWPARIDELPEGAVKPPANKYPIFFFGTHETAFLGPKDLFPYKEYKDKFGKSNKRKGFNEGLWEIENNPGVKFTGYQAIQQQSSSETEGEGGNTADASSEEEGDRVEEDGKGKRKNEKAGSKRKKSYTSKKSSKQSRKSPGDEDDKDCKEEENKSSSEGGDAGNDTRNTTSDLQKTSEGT
# UniProt Q92664: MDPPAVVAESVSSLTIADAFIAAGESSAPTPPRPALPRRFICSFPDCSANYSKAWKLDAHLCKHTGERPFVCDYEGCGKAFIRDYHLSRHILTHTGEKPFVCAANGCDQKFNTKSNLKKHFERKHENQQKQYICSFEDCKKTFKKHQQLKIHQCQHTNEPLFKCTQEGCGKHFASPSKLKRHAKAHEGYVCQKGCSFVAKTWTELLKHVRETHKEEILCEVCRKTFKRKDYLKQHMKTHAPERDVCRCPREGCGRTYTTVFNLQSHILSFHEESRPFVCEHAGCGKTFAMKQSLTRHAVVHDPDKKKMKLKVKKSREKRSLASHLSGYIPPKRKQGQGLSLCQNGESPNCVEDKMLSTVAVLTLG
# Some of the results follow.
# Tests used:
# Test in all cases: log2 fold change, soluble protein after heating vs DMSO (PISA); higher = thermal stabilisation; K562 lysate, 10 uM; active = over 0.2 and 3.5 SD of the protein, either way, in both replicates (recomputed)
# erlotinib = compound: C#Cc1cccc(Nc2ncnc3cc(OCCOC)c(OCCOC)cc23)c1 [erlotinib]
# Summary of the method: (§1)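 K562 pellets were dounce-homogenised in PBS pH 7.4 with 1 mM MgCl2, and the crude extract at 1 mg/mL protein was treated with 10 μM compound for 30 min. Aliquots were heated for 3 min across 48°C-58°C, pooled, and brought to 0.5% NP-40 at 4°C; soluble protein was the supernatant after 21,000xg for 90 min. Soluble protein was quantified by TMTpro 16plex LC-MS/MS with channel sums equalised, and reported as log2 fold change in thermal stability against DMSO controls, with values from duplicates.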
# [1] = compound: C/C(=N\NC(=O)C1=CC(=CC=C1)S(=O)(=O)N2CCOCC2)/C3=C(C=CC(=C3)Cl)O
# Summary of the method: as §1
# [2] = compound: C1=CC(=CC=C1C2=NC3=C(N2)C=C(C=C3)C(=O)N)OC4=CC=C(C=C4)Cl
# Summary of the method: as §1
# [3] = compound: C1=CC2=C(C=CC(=C2)/C=C\3/C(=O)NC(=NCC4=CC=CS4)S3)N=C1
# Summary of the method: as §1
# [4] = compound: C1=CC2=NC=CN=C2C=C1/C=C/3\C(=O)NC(=O)S3
# Summary of the method: as §1
# [5] = compound: C1=CC=C(C=C1)C2=NC(=C(N2)C3=CC=NC=C3)C4=CC(=C(C=C4)Cl)O
# Summary of the method: as §1
# [6] = compound: C1=CC=C2C(=C1)C3=NNC4=CC=CC(=C43)C2=O
# Summary of the method: as §1
# [7] = compound: C1CCN(C1)C(=O)NC2=CC=CC(=C2)NC3=NC=C(C(=N3)NCCC4=CN=CN4)Br
# Summary of the method: as §1
# [8] = compound: C1CN(CCC1(CC2=CC=C(C=C2)Cl)N)C3=NC=NC4=C3C=CN4
# Summary of the method: as §1
# IRAK-1-4 Inhibitor I = compound: C1COCCN1CCN2C3=CC=CC=C3N=C2NC(=O)C4=CC(=CC=C4)[N+](=O)[O-] [IRAK-1-4 Inhibitor I]
# Summary of the method: as §1
# ibrutinib = compound: C=CC(=O)N1CCC[C@@H](n2nc(-c3ccc(Oc4ccccc4)cc3)c3c(N)ncnc32)C1 [ibrutinib]
# Summary of the method: as §1
# [9] = compound: CC(=O)c1cnc2ccc(-c3cc(Cl)c(O)c(Cl)c3)nc2c1N[C@H]1CC[C@H](CN(C)C)CC1
# Summary of the method: as §1
# ralimetinib = compound: CC(C)(C)Cn1c(N)nc2ccc(-c3[nH]c(C(C)(C)C)nc3-c3ccc(F)cc3)nc21 [ralimetinib]
# Summary of the method: as §1
# [10] = compound: CC(C)(O)CC(=O)NCCn1ccc2ncnc(Nc3ccc(Oc4cccc(C(F)(F)F)c4)c(Cl)c3)c21
# Summary of the method: as §1
# [11] = compound: CC(C)C1=C2N=C(C=C(N2N=C1)NCC3=CC=CC=C3)NCCCCCCN
# Summary of the method: as §1
# [12] = compound: CC1=C(C(CC(=O)N1)C2=CC=C(C=C2)C(F)(F)F)C(=O)NC3=C(C=C4C(=C3)C=NN4)F
# Summary of the method: as §1
# [13] = compound: CC1=C(C2=C(C=C1)C(=O)C3=CC=CC=C3N2CCCN)C
# Summary of the method: as §1
# [14] = compound: CC1=C(C=C(C=C1)NC(=O)C2=CC(=CC=C2)C(C)(C)C#N)NC3=CC4=C(C=C3)N=CN(C4=O)C
# Summary of the method: as §1
# [15] = compound: CC1=C(C=C(C=C1)NC(=O)C2=CC(=CC=C2)N(C)C)NC(=O)C3=CC=C(C=C3)O
# Summary of the method: as §1
# [16] = compound: CC1=CC=C(C=C1)SC2=C3C=C(SC3=CN=C2)C(=O)N
# Summary of the method: as §1
Target,log2 fold change (erlotinib),log2 fold change [1],log2 fold change [2],log2 fold change [3],log2 fold change [4],log2 fold change [5],log2 fold change [6],log2 fold change [7],log2 fold change [8],log2 fold change (IRAK-1-4 Inhibitor I),log2 fold change (ibrutinib),log2 fold change [9],log2 fold change (ralimetinib),log2 fold change [10],log2 fold change [11],log2 fold change [12],log2 fold change [13],log2 fold change [14],log2 fold change [15],log2 fold change [16]
HBS1L isoform 2 (UniProt Q9Y450),inactive: 0.014,inactive: -0.052,inactive: 0.011,inactive: 0.033,inactive: -0.041,inactive: -0.008,inactive: -0.014,inactive: -0.002,inactive: 0.035,inactive: 0.004,inactive: 0.035,inactive: 0.002,inactive: 0.03,inactive: -0.053,inactive: 0.018,inactive: 0.017,inactive: -0.012,inactive: 0.009,inactive: 0.028,inactive: 0.018
GTPBP4 (UniProt Q9BZE4),inactive: 0.024,inactive: 0.022,inactive: -0.047,inactive: 0.044,inactive: 0.008,inactive: 0.023,inactive: 0.054,inactive: 0.019,inactive: -0.007,inactive: -0.026,inactive: 0.012,inactive: 0.008,inactive: 0.008,inactive: -0.022,inactive: 0,inactive: 0.006,inactive: -0.01,inactive: 0,inactive: 0.023,inactive: 0.02
GTSE1 (UniProt Q9NYZ3),inactive: 0.015,inactive: -0.003,inactive: 0.057,inactive: 0.042,inactive: -0.015,inactive: 0.025,inactive: -0.04,inactive: 0.149,inactive: -0.044,inactive: -0.078,inactive: 0.051,inactive: 0.035,inactive: 0.023,inactive: 0.022,inactive: -0.016,inactive: 0.006,inactive: 0.012,inactive: 0.019,inactive: -0.014,inactive: -0.028
HCLS1 (UniProt P14317),inactive: -0.049,inactive: 0.014,inactive: -0.001,inactive: 0.02,inactive: -0.001,inactive: 0.044,inactive: -0.009,inactive: 0.013,inactive: -0.021,inactive: 0,inactive: 0.078,inactive: -0.028,inactive: -0.021,inactive: 0.004,inactive: -0.002,inactive: -0.02,inactive: 0.021,inactive: -0.026,inactive: 0.018,inactive: -0.019
GRK2 (UniProt P25098),inactive: 0.023,inactive: 0.028,inactive: 0.015,inactive: 0.115,inactive: -0.005,inactive: -0.025,inactive: -0.098,inactive: -0.026,active: 0.536,inactive: -0.002,inactive: 0.002,inactive: 0.011,inactive: 0.006,inactive: 0.036,inactive: 0,inactive: 0.151,inactive: 0.014,inactive: -0.048,inactive: 0.007,inactive: -0.031
HARS2 (UniProt P49590),inactive: 0,inactive: -0.05,inactive: -0.051,inactive: -0.049,inactive: -0.005,inactive: -0.06,inactive: 0.079,inactive: -0.277,inactive: 0.006,inactive: -0.022,inactive: 0.049,inactive: 0.105,inactive: -0.018,inactive: -0.053,inactive: -0.043,inactive: 0.022,inactive: -0.102,inactive: -0.109,inactive: 0.066,inactive: -0.054
GSTP1 (UniProt P09211),inactive: -0.008,inactive: 0.035,inactive: -0.024,inactive: 0.036,inactive: 0.08,inactive: -0.002,inactive: 0.007,inactive: -0.022,inactive: -0.022,inactive: 0,inactive: -0.012,inactive: 0.042,inactive: 0.011,inactive: -0.003,inactive: 0.021,inactive: -0.011,inactive: 0.036,inactive: -0.025,inactive: 0.003,inactive: -0.003
GSTK1 (UniProt Q9Y2Q3),inactive: -0.025,inactive: -0.066,inactive: -0.001,inactive: -0.019,inactive: -0.018,inactive: -0.038,inactive: -0.021,inactive: -0.01,inactive: 0.076,inactive: 0.002,inactive: 0.062,inactive: 0.009,inactive: 0,inactive: -0.03,inactive: -0.024,inactive: 0.001,inactive: 0.017,inactive: -0.011,inactive: 0.005,inactive: -0.01
HAUS4 (UniProt Q9H6D7),inactive: 0.012,inactive: -0.029,inactive: -0.036,inactive: 0.064,inactive: -0.003,inactive: 0.015,inactive: -0.015,inactive: -0.025,inactive: -0.007,inactive: -0.016,inactive: 0.04,inactive: -0.033,inactive: 0.003,inactive: 0.01,inactive: -0.004,inactive: 0.006,inactive: -0.016,inactive: -0.008,inactive: 0.057,inactive: -0.01
HBE1 (UniProt P02100),inactive: 0.013,inactive: -0.071,inactive: -0.028,inactive: 0.037,inactive: 0.002,inactive: 0.005,inactive: 0.023,inactive: -0.002,inactive: 0.046,inactive: -0.006,inactive: 0.075,inactive: -0.031,inactive: -0.019,inactive: -0.021,inactive: 0.016,inactive: -0.047,inactive: 0.006,inactive: 0.063,inactive: -0.016,inactive: 0.043
HAUS3 (UniProt Q68CZ6),inactive: 0.022,inactive: 0.01,inactive: -0.033,inactive: 0.016,inactive: -0.028,inactive: 0.004,inactive: -0.06,inactive: -0.045,inactive: 0.019,inactive: 0.025,inactive: -0.025,inactive: -0.021,inactive: 0.009,inactive: -0.019,inactive: 0.001,inactive: 0.022,inactive: 0.026,inactive: 0.014,inactive: 0.025,inactive: 0.025
GRIPAP1 (UniProt Q4V328),inactive: -0.01,inactive: -0.013,inactive: 0.015,inactive: -0.005,inactive: -0.014,inactive: -0.004,inactive: 0.005,inactive: -0.021,inactive: 0.007,inactive: -0.017,inactive: -0.001,inactive: 0.003,inactive: 0.017,inactive: 0.003,inactive: -0.007,inactive: 0.011,inactive: -0.024,inactive: -0.013,inactive: -0.013,inactive: -0.014
HARS (UniProt P12081),inactive: -0.034,inactive: 0.006,inactive: -0.002,inactive: 0.021,inactive: -0.036,inactive: -0.005,inactive: 0.019,inactive: -0.016,inactive: 0.001,inactive: -0.002,inactive: -0.049,inactive: 0.022,inactive: -0.002,inactive: 0.015,inactive: -0.039,inactive: -0.015,inactive: 0.008,inactive: 0.005,inactive: 0.008,inactive: 0.005
GTF2E1 (UniProt P29083),inactive: 0.003,inactive: -0.028,inactive: 0.005,inactive: 0.013,inactive: -0.016,inactive: 0.013,inactive: 0.028,inactive: 0.001,inactive: 0.006,inactive: 0.024,inactive: -0.03,inactive: -0.008,inactive: 0.008,inactive: 0.007,inactive: 0.002,inactive: -0.002,inactive: 0.004,inactive: 0.068,inactive: -0.003,inactive: -0.017
HDGFL3 (UniProt Q9Y3E1),inactive: 0.062,inactive: -0.039,inactive: 0.027,inactive: -0.021,inactive: -0.013,inactive: -0.032,inactive: -0.002,inactive: 0.04,inactive: 0.023,inactive: 0.03,inactive: -0.006,inactive: -0.036,inactive: -0.043,inactive: -0.064,inactive: 0.03,inactive: -0.052,inactive: -0.015,inactive: 0.022,inactive: 0.04,inactive: -0.014
GTF3A (UniProt Q92664),inactive: -0.027,inactive: -0.039,inactive: 0.108,inactive: -0.019,inactive: -0.002,inactive: 0.02,inactive: 0.046,inactive: 0.03,inactive: -0.07,inactive: -0.039,inactive: 0.013,inactive: 0.012,inactive: -0.007,inactive: 0.06,inactive: -0.044,inactive: -0.023,inactive: -0.017,inactive: 0.117,inactive: -0.037,inactive: 0.038

# Some of the entries so far, with tabs:
Target	log2 fold change (erlotinib)	log2 fold change [1]	log2 fold change [2]	log2 fold change [3]	log2 fold change [4]	log2 fold change [5]	log2 fold change [6]	log2 fold change [7]	log2 fold change [8]	log2 fold change (IRAK-1-4 Inhibitor I)	log2 fold change (ibrutinib)	log2 fold change [9]	log2 fold change (ralimetinib)	log2 fold change [10]	log2 fold change [11]	log2 fold change [12]	log2 fold change [13]	log2 fold change [14]	log2 fold change [15]	log2 fold change [16]
GRK2 (UniProt P25098)	inactive: 0.023	inactive: 0.028	inactive: 0.015	inactive: 0.115	inactive: -0.005	inactive: -0.025	inactive: -0.098	inactive: -0.026	active: 0.536	inactive: -0.002	inactive: 0.002	inactive: 0.011	inactive: 0.006	inactive: 0.036	inactive: 0	inactive: 0.151	inactive: 0.014	inactive: -0.048	inactive: 0.007	inactive: -0.031
HARS2 (UniProt P49590)	inactive: 0	inactive: -0.05	inactive: -0.051	inactive: -0.049	inactive: -0.005	inactive: -0.06	inactive: 0.079	inactive: -0.277	inactive: 0.006	inactive: -0.022	inactive: 0.049	inactive: 0.105	inactive: -0.018	inactive: -0.053	inactive: -0.043	inactive: 0.022	inactive: -0.102	inactive: -0.109	inactive: 0.066	inactive: -0.054
